Laboratory results: PubChem BioAssay AID504764 (Drosophila RNAi Screening Center, 2011)
Test: 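Knock-downs that raise or lower a Notch target reporter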 (primary screen). Cells: Drosophila Kc167 cells. Reagents: long dsRNA against Drosophila genes. Time to read-out: about 5 days (4 days dsRNA, then 24 h after transfection). Conditions: transfection of constitutively active membrane-tethered Notch lacking the extracellular domain, read 24 h later. Measurement: 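Light from a Notch-responsive E(spl)m3 luciferase reporter under active Notch, with control-promoter and no-Notch reporter wells to normalise; raw counts from paired wells a and b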. Reading the numbers: induced reporter light, run 1, well a and induced reporter light, run 1, well b: higher = more light from the Notch target reporter with active Notch; control promoter light, run 1, well a and control promoter light, run 1, well b: higher = more light from the viral control promoter (cell number, transfection, viability); uninduced reporter light, run 1, well a: higher = more light from the Notch target reporter without active Notch. Active means: 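Hit if the duplicate-averaged log2 ratio of induced to control-promoter light gives a plate-wise z beyond ±2, or induced to uninduced beyond ±1.8; weak-control or discordant-duplicate wells dropped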. Calls: active = modifier hit (raised or lowered Notch signal); inactive = not a hit.
The deposit covers about 22,000 reagents; shown is an unselected part of those with a known target gene and a result. Of all reagents, 403 (1.9%) are marked active. 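Unnormalised raw counts per well; ratio z-scores behind the hit calls and whether each hit raises or lowers signal are not deposited.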 The numbers tell different reagents against one gene apart. A plus sign joins genes that one reagent is predicted to hit. Not given: the amount of reagent.

target gene | dsRNA no. | induced reporter light, run 1, well a | induced reporter light, run 1, well b | control promoter light, run 1, well a | control promoter light, run 1, well b | uninduced reporter light, run 1, well a | activity call
Vrp1 | 1 | 2.14e5 | 2.34e5 | 2.09e5 | 2.34e5 | 15345 | inactive
bero | 1 | 45950 | 48125 | 39985 | 37235 | 1820 | inactive
CG32537 | 1 | 68960 | 62780 | 50855 | 30210 | 6670 | inactive
CG15084 | 1 | 67230 | 69815 | 1.42e5 | 1.85e5 | 6520 | inactive
CG34176 | 1 | 1.15e5 | 99390 | 1.40e5 | 1.09e5 | 7415 | inactive
CG11710 | 1 | 85870 | 90745 | 80520 | 98760 | 9805 | inactive
CG10467 | 1 | 1.58e5 | 1.26e5 | 1.10e5 | 85600 | 7100 | active
CkIIbeta2 | 1 | 98230 | 59040 | 75920 | 67080 | 5750 | inactive
CG13215 | 1 | 1.44e5 | 1.47e5 | 1.54e5 | 1.90e5 | 13590 | inactive
CG14687 | 1 | 63910 | 67285 | 63980 | 42915 | 3515 | inactive
CG7409 | 1 | 1.86e5 | 2.18e5 | 2.66e5 | 3.13e5 | 13488 | inactive
C3G | 1 | 1.31e5 | 1.37e5 | 2.16e5 | 3.02e5 | 11545 | inactive
C3G | 2 | 1.62e5 | 1.82e5 | 3.19e5 | 3.44e5 | 12220 | inactive
C3G | 3 | – | – | – | – | – | inactive
sll | 1 | 1.46e5 | 1.53e5 | 1.48e5 | 1.76e5 | 15320 | inactive
CG16935 | 1 | 81870 | 70680 | 1.03e5 | 1.11e5 | 7545 | inactive
CG17321 | 1 | 35795 | 40220 | 39320 | 26770 | 3030 | inactive
Rsph9 | 1 | 48855 | 75085 | 63150 | 69525 | 5535 | inactive
CG34284 | 1 | 1.94e5 | 1.57e5 | 2.26e5 | 2.52e5 | 14828 | inactive
MED10 | 1 | 1.82e5 | 1.42e5 | 1.61e5 | 2.01e5 | 9765 | inactive
lark | 1 | 82220 | 72030 | 51225 | 31625 | 6120 | inactive
CG14720 | 1 | 51680 | 52995 | 46240 | 40810 | 4070 | inactive
Nep4 | 1 | 1.65e5 | 1.65e5 | 2.16e5 | 2.40e5 | 13130 | inactive
sn | 1 | 1.48e5 | 1.65e5 | 2.50e5 | 2.26e5 | 10795 | inactive
Ehbp1 | 1 | 96685 | 98315 | 1.97e5 | 2.17e5 | 8450 | inactive
fne | 1 | 1.26e5 | 1.36e5 | 2.59e5 | 2.50e5 | 10130 | inactive
eIF2gamma | 1 | 5895 | 4325 | 6645 | 4420 | 455 | inactive
eIF2gamma | 2 | 1.46e5 | 1.34e5 | 90800 | 76480 | 10825 | inactive
Or85a | 1 | 64355 | 77470 | 74395 | 50900 | 4715 | inactive
RpL7 | 1 | 11920 | 11825 | 9985 | 8485 | 1235 | inactive
Letm1 | 1 | 52430 | 63585 | 38245 | 48780 | 3455 | inactive
CG7848 | 1 | 32835 | 25225 | 51985 | 34640 | 4145 | inactive
RpL36A | 1 | 78085 | 92600 | 51175 | 61760 | 10955 | inactive
Fkbp39 | 1 | 1.24e5 | 1.18e5 | 88180 | 81640 | 10320 | inactive
CG10550 | 1 | 1.96e5 | 2.00e5 | 2.84e5 | 3.01e5 | 14045 | inactive
cmet | 1 | 1.09e5 | 1.43e5 | 64985 | 84585 | 17265 | inactive
CG33257 | 1 | 1.87e5 | 1.56e5 | 1.93e5 | 2.08e5 | 8200 | inactive
Khc | 1 | 1.46e5 | 1.63e5 | 2.76e5 | 3.12e5 | 12225 | inactive
CG13894 | 1 | 12610 | 8710 | 14050 | 13600 | 3930 | inactive
RpL21 | 1 | 3850 | 5080 | 4405 | 5150 | 338 | inactive
CG4408 | 1 | 2.12e5 | 2.15e5 | 2.58e5 | 2.59e5 | 13690 | inactive
mEFTs | 1 | 2.42e5 | 2.24e5 | 2.34e5 | 2.59e5 | 16000 | inactive
Odj | 1 | 1.66e5 | 1.73e5 | 2.09e5 | 2.08e5 | 15485 | inactive
DptA | 1 | 1.15e5 | 96670 | 1.04e5 | 1.25e5 | 1040 | inactive
betaTub65B | 1 | 2.28e5 | 2.48e5 | 3.41e5 | 2.36e5 | 12610 | inactive
tHMG2 | 1 | 1.66e5 | 1.88e5 | 1.91e5 | 1.84e5 | 12715 | inactive
CG11147 | 1 | 1.04e5 | 1.26e5 | 1.36e5 | 1.08e5 | 6405 | inactive
CG34260 + cmpy | 1 | 1.50e5 | 1.09e5 | 86120 | 85230 | 9710 | inactive
CG12983 | 1 | 1.44e5 | 1.03e5 | 86380 | 95650 | 9145 | inactive
CG11584 | 1 | 1.07e5 | 1.01e5 | 1.14e5 | 1.05e5 | 15055 | inactive
